In all, about 580,000 compounds went through this assay and about 6,100 (1.1%) were called active. The shares of active, inactive and inconclusive entries below differ from those in the screen. Calls follow the shape of the dose curve; as a rule, active = well fitted inhibition curve with a large enough effect; inconclusive = small, poorly fitted or top-dose-only effect, or another doubt; inactive = no such curve, though single readings can be large or run the other way. Potencies beside an inconclusive call are fits to weak or partial responses and may not hold up.
Biological target: Polyunsaturated fatty acid lipoxygenase ALOX12 (Homo sapiens) (UniProt P18054)
Experiment: Primary qHTS assay for inhibitors of human arachidonate 12S-lipoxygenase (ALOX12): Round 2
Settings: purified 12hLO, xylenol orange hydroperoxide absorbance; activity change, negative = inhibition: at 108 µM (top of the series) unless noted
In short: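 Purified human 12hLO at 150 nM in 25 mM Hepes, 0.01% Triton X-100, pH 7.0, preincubated 15 min at room temperature with compound. Reaction started with 40 uM arachidonic acid, 30 min at room temperature. Hydroperoxide measured by Fe-xylenol orange, 573/405 nm absorbance ratio.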
% is scaled to controls: 0 for no effect and ±100 for the full control effect; potency is read from the fitted curve at half-maximal effect.

Amino acid sequences for entries named in this document (tags omitted).
UniProt P18054, whole entry, looked up: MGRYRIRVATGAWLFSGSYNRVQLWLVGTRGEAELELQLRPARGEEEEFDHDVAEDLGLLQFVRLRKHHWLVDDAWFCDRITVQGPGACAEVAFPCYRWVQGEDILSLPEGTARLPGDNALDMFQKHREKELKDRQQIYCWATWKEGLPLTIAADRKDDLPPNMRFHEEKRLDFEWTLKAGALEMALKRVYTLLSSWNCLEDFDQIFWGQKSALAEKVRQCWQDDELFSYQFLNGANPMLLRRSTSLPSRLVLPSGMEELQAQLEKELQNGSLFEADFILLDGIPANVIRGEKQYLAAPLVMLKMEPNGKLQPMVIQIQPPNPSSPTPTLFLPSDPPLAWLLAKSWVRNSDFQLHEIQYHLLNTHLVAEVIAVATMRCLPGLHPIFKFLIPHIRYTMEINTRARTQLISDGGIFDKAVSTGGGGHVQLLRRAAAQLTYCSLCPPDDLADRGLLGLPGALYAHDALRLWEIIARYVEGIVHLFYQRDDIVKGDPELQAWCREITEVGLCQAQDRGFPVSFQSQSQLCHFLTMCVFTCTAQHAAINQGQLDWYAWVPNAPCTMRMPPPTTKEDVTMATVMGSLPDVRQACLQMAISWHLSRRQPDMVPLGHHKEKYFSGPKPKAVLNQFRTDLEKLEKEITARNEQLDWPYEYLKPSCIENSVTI

Compound | Potency | activity change, negative = inhibition
Nc1ccc2c(S(=O)(=O)O)cc(S(=O)(=O)O)cc2c1 | inconclusive: 28.2 µM [inhibitor, partial curve, poor fit] | 
COc1ccc(OC)c(Nc2nc(NCC(C)C)nc3c2cnn3-c2ccccc2)c1 | inactive | 
CCCC(=O)Nc1ccc2oc(=O)ccc2c1 | inactive | 
CCn1nccc1C(=O)N1CCC2(CC1)NC(=O)N(c1ccccc1)N2 | active: 5.62 µM | 
FC(F)(F)c1ccc(Nc2cc3c(cn2)ncn3Cc2ccco2)cc1 | inconclusive: 7.94 µM [inhibitor, full curve, poor fit] | 
COc1cccc(OC)c1C(=O)Oc1cc(C)c2c(c1)O/C(=C\c1cccnc1)C2=O | inactive | 
COCCN1C(=O)C(O)=C(C(=O)c2ccco2)C1c1cccc(Oc2ccccc2)c1 (centres undefined) | inconclusive: 56.2 µM [inhibitor, partial curve, poor fit] | 
CCC(=O)Nc1ccc(S(=O)(=O)Nc2c(C)nc3nc[nH]n3c2=O)cc1 | inconclusive: 44.7 µM [inhibitor, partial curve, poor fit] | 
COc1cc(Br)c(C(N)C(=O)O)cc1OC (centres undefined) | inactive | 
Cc1cc(C)c2c(CC(=O)O)c(C)[nH]c2c1 | active: 50.1 µM | 
Cc1[nH]n(-c2ccccc2)c(=O)c1N=O | inconclusive: 44.7 µM [inhibitor, partial curve, poor fit] | 
Cc1cccc(OC(C)c2nc(-c3ccc(Br)cc3)no2)c1 (centres undefined) | inactive | 
CCOc1ccc(NC(=O)c2cnc(N3CCCCC3)c3ccccc23)cc1 | inconclusive: 126 µM [inhibitor, partial curve, poor fit] | 
Cc1cc2oc(C(=O)NCC(c3ccco3)N3CCOCC3)cc(=O)c2cc1Cl (centres undefined) | inconclusive: 25.1 µM [inhibitor, partial curve, poor fit] | 
Cn1c(-c2ccc(Cl)cc2)cnc1N | inactive | 
Cc1cccc(-n2c(=O)c3ccccc3n3c(=S)[nH]nc23)c1C | inconclusive: 44.7 µM [inhibitor, partial curve, poor fit] | 
O=C(COC(=O)c1ccccn1)Nc1nc(-c2cccc([N+](=O)[O-])c2)cs1 | inactive | 
CC(C)N1C(=S)N(Cc2ccco2)C(=O)C1CC(=O)Nc1ccccc1 (centres undefined) | inconclusive: 112 µM [inhibitor, single point] | 
CCc1ccc(Nc2nnc(SC(C)C(=O)NC3CC3)s2)cc1 (centres undefined) | inconclusive: 70.8 µM [inhibitor, single point] | 
CCOC(=O)C1=C[C@@H](C(C)(C)C)N(S(=O)(=O)c2ccc(C)cc2)[C@H]1c1ccc(Cl)c(Cl)c1 | inconclusive: 39.8 µM [inhibitor, single point] | 
Cc1ccc(-n2nc3cc(C)c(NC(=S)NC(=O)/C=C/c4ccco4)cc3n2)cc1 | active: 44.7 µM | 
COc1ccccc1[C@H]1C(c2ccc(F)cc2)=NN(c2ccccc2)[C@@H]1CO | inconclusive: 56.2 µM [inhibitor, partial curve, poor fit] | 
CC1(C)Cc2c(sc3ncn4nc(-c5cccc(O)c5)nc4c23)CO1 | inconclusive: 39.8 µM [inhibitor, partial curve, poor fit] | 

Single values from the entries so far:
`Cc1cccc(-n2c(=O)c3ccccc3n3c(=S)[nH]nc23)c1C` | Potency: inconclusive: 44.7 µM [inhibitor, partial curve, poor fit]
`CC1(C)Cc2c(sc3ncn4nc(-c5cccc(O)c5)nc4c23)CO1` | Potency: inconclusive: 39.8 µM [inhibitor, partial curve, poor fit]

2 successive entries out of the list so far, quoted:
Compound | Potency | activity change, negative = inhibition
COc1cccc(OC)c1C(=O)Oc1cc(C)c2c(c1)O/C(=C\c1cccnc1)C2=O | inactive | 
COCCN1C(=O)C(O)=C(C(=O)c2ccco2)C1c1cccc(Oc2ccccc2)c1 (centres undefined) | inconclusive: 56.2 µM [inhibitor, partial curve, poor fit] | 

Further entries:

Compound | Potency | activity change, negative = inhibition
CC(C)C(=O)NNC(=O)CC(=O)Nc1ccccc1C(=O)O | inactive | 
CC(CC(=O)Nc1ccc(NC(=O)C(C)(C)C)cc1)c1ccccc1 (centres undefined) | inactive | 
O=C(/C=C/c1ccc(F)cc1)Nc1cccc(S(=O)(=O)N2CCOCC2)c1 | inactive | 
CC(C)(C)c1ccccc1NC(=S)NC1CCCC1 | inconclusive: 39.8 µM [inhibitor, partial curve, poor fit] | 
O=C(CSc1ccccn1)NCc1cccnc1Oc1ccccc1 | inconclusive: 89.1 µM [inhibitor, single point] | 
Cc1nc(-c2c3n(c(=O)n(Cc4cc(F)cc(F)c4)c2=O)CCCCC3)no1 | inconclusive: 28.2 µM [inhibitor, full curve] | 
Cc1cccc(NC(=O)C(=O)NCC2CCCN2S(=O)(=O)c2ccccc2)c1 (centres undefined) | inconclusive: 112 µM [inhibitor, single point] | 
CC[n+]1c(C)ccc2cc(C)ccc21 | active: 5.62 µM | 
Cc1ccccc1OCC(=O)NC(=S)Nc1ccc2c3c(cccc13)CC2 | inactive | 
Cc1cc2c(cc1C)C(c1cccc(F)c1)CC(=O)N2 (centres undefined) | inactive | 
Cc1nc2scc(-c3cccs3)c2c(=O)n1CC(=O)O | inconclusive: 31.6 µM [inhibitor, single point] | 
CSC1=NSC2=NC(=O)/C(=C\c3coc4ccccc4c3=O)C(=N)N12 | inconclusive: 39.8 µM [inhibitor, partial curve, poor fit] | 
Cc1cc(=O)n2c3ccccc3n(CC(O)CN3CCN(c4ccccc4)CC3)c2c1C#N (centres undefined) | inactive | 
CN1C(C(=O)NCc2cccc(Br)c2)CC2Cn3c(nc4cc(Cl)c(Cl)cc43)C21 (centres undefined) | inconclusive: 5.62 µM [inhibitor, full curve, poor fit] | 
COc1cccc(-c2csc(NC(C)=O)n2)c1 | inconclusive: 126 µM [inhibitor, single point] | 
COc1cccc(NC(=O)COc2coc(CN3CCc4ccccc4C3)cc2=O)c1 | inconclusive: 79.4 µM [inhibitor, partial curve, poor fit] | 
O=C(CCc1nc2ccccc2c(=O)[nH]1)OCC(=O)N1CCc2ccccc21 | inactive | 
Cc1ccc(/C=C2\SC(=S)N(CCCC(=O)Nc3ccccn3)C2=O)cc1 | inconclusive: 35.5 µM [inhibitor, single point] | 
COc1ncnc2c1ncn2CCCN1CCN(c2ccccn2)CC1 | inconclusive: 39.8 µM [inhibitor, single point] | 
O=C(N/C(=C\c1ccc([N+](=O)[O-])cc1)C(=O)N1CCOCC1)c1ccco1 | inconclusive: 35.5 µM [inhibitor, partial curve, poor fit] | 
O=C(CCOc1cc(Cl)ccc1Cl)Nc1ccc(-n2cnnn2)cc1 | inconclusive: 70.8 µM [inhibitor, single point] | 
Cc1cccc(CN2CCc3nc(N4CCN(c5ccccn5)CC4)ncc3C2)c1 | inconclusive: 50.1 µM [inhibitor, partial curve, poor fit] | 
O=C(Nc1ccc(Cl)cc1)N1CCN(CCc2ccncc2)CC1 | inactive | 

Compound | Potency | activity change, negative = inhibition
C=CCOc1ccc(/C=C2\SC(=S)N(C(C(=O)O)c3ccccc3)C2=O)cc1 (centres undefined) | inconclusive: 44.7 µM [inhibitor, partial curve, poor fit] | 
Cc1cc(C)cc(NC(=S)N2CCN(CCO)CC2)c1 | inactive | 
CCCCNC(=O)c1cccc(NC(=O)c2ccncc2)c1 | inactive | 
Cc1nc(CCNC(=O)C2CNCCO2)nc2c1CCCC2 (centres undefined) | inconclusive: 39.8 µM [inhibitor, single point] | 
O=C(NCCc1ccccc1)C(=O)NCC1CCCN1S(=O)(=O)c1cccs1 (centres undefined) | inconclusive: 35.5 µM [inhibitor, partial curve, poor fit] | 
CCOC(=O)C(C(=O)Nc1ccccn1)C1CCCCC1 (centres undefined) | inconclusive: 44.7 µM [inhibitor, partial curve, poor fit] | 
COc1ccc(-c2cn3ccccc3n2)cc1OC | inconclusive: 20 µM [inhibitor, partial curve] | 
COc1ccc(Cl)cc1C(=O)Nc1ccc(-c2nnc3n2CCCCC3)cc1 | inactive | 
O=C(NCc1ccccc1Cl)c1ccc2c(O)c(S(=O)(=O)c3ccccc3)c(=O)[nH]c2c1 | inactive | 
Cc1ccc(S(=O)(=O)NCCC(=O)Nc2cccc(Cl)c2)cc1 | inconclusive: 100 µM [inhibitor, partial curve, poor fit] | 
c1ccc2nc(NN=C3CCCCC3)ccc2c1 | inconclusive: 56.2 µM [inhibitor, partial curve, poor fit] | 
CCc1ccc(-c2noc(CSc3ccc(S(=O)(=O)N4CCN(C)CC4)cn3)n2)cc1 | inconclusive: 2 µM [inhibitor, full curve, poor fit] | 
CC(C(=O)Nc1ccccc1-c1ccccc1)N1CCN(Cc2ccccc2)CC1 (centres undefined) | inconclusive: 25.1 µM [inhibitor, partial curve, poor fit] | 
Cc1c(C(=O)N/N=C/c2ccc(-c3ccccc3[N+](=O)[O-])o2)sc(N)c1C#N | inconclusive: 5.01 µM [inhibitor, full curve, poor fit] | 
O=C(C1CCCCC1)N1CCC(c2nc3c(nnn3Cc3c(F)cccc3Cl)c(=O)[nH]2)CC1 | inconclusive: 7.08 µM [inhibitor, full curve, poor fit] | 
O=C(NC1CCCCC1)c1cccc(Oc2ccccc2)c1 |  | inconclusive: -42.1% [inhibitor]
N#C/C(=C/c1c2ccccc2cc2ccccc12)c1nc2ccccc2[nH]1 | inconclusive: 3.16 µM [inhibitor, full curve, poor fit] | 
O=C(COc1ccccc1)N[C@H]1CO[C@H]2[C@@H]1OC[C@H]2OC(=O)Nc1cccc2ccccc12 | inconclusive: 20 µM [inhibitor, full curve, poor fit] | 
CCN(CC)C(=O)[C@H]1CC(CC(=O)NC/C=C(\C)CCC=C(C)C)C(=O)N2CCc3c([nH]c4ccc(OC)cc34)[C@]12C (some centres undefined) | inactive | 
Cc1ccccc1-c1nc2c(s1)CCc1onc(-c3ccc(Cl)cc3)c1-2 | inactive | 
Cc1cc(-c2sccc2C)nc(-n2cccc2)n1 | inactive | 
CCOC(=O)c1[nH]c2ccccc2c1NC(=O)CC(C)C | inactive | 
N#Cc1ccc(S(=O)(=O)N2CCC(C(=O)Nc3nc4c(s3)CCC4)CC2)cc1 | inconclusive: 44.7 µM [inhibitor, partial curve, poor fit] | 
